Measurements reported in PubChem BioAssay AID1159578 (Peter MacCallum Cancer Centre, 2015)

- Purpose: 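Genome-wide hunt for genes controlling movement of lymphatic endothelial cells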 (primary screen)
- Cell system: human lymphatic endothelial cells
- Reagent: siRNA pool against human genes, 40 nM
- Time to read-out: 48 h after transfection
- Detection: 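High-content imaging of dye-stained cells in a scratch assay measures filled wound area and nuclei per well; duplicate means given as ratio to mock and robust z-score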
- Reading the numbers: migration robust z-score: higher = faster migration into the scratch; migration relative to mock: higher = more scratch area covered than mock; nuclei per well: higher = more cells in the well
- Rule for the call: 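Migration changed when robust z exceeds 2 or falls below -2 and mean nuclei number is at least 3300; otherwise not called changed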
- Calls: active = migration changed; inactive = no migration change, or too few cells
This is an unselected part of about 18,000 reagents. In the full data, about 1,030 (5.7%) got an active call. 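Inactive calls also include pools with fewer than 3300 nuclei, whose migration was not assessed.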 Raw values vary from plate to plate and are shown uncorrected.

| Target gene | migration robust z-score | migration class with cell-count check | migration relative to mock | nuclei per well, duplicate mean | Call |
| --- | --- | --- | --- | --- | --- |
| PTTG2 | 0.84 | migration z between -2 and 2; enough cells | 1.1 | 6850 | inactive |
| ABCD4 | -0.23 | migration z between -2 and 2; enough cells | 0.76 | 5757 | inactive |
| TBC1D4 | 0.76 | migration z between -2 and 2; enough cells | 1.07 | 5700 | inactive |
| FCGR1A | -0.36 | migration z between -2 and 2; enough cells | 0.74 | 6180 | inactive |
| RDX | -0.48 | migration z between -2 and 2; enough cells | 0.76 | 6167 | inactive |
| BICRA | 1.98 | migration z between -2 and 2; enough cells | 1.4 | 5461 | inactive |
| ATP13A1 | -0.83 | migration z between -2 and 2; enough cells | 0.64 | 6553 | inactive |
| VDAC2 | 0.7 | migration z between -2 and 2; enough cells | 0.94 | 3900 | inactive |
| RRM2B | 0.7 | migration z between -2 and 2; enough cells | 0.94 | 5217 | inactive |
| CLPTM1L | -2.54 | migration z below -2; enough cells | 0.23 | 5896 | active |
| SPIN2B | -0.85 | migration z between -2 and 2; enough cells | 0.66 | 5966 | inactive |
| KLHL5 | -0.78 | migration z between -2 and 2; enough cells | 0.68 | 5044 | inactive |
| PSG4 | 0.44 | migration z between -2 and 2; enough cells | 1 | 5432 | inactive |
| TAS1R3 | 0.42 | migration z between -2 and 2; enough cells | 1 | 4772 | inactive |
| PDP2 | -1.14 | migration z between -2 and 2; enough cells | 0.58 | 6134 | inactive |
| IL2 | 0.68 | migration z between -2 and 2; enough cells | 1.06 | 6222 | inactive |
| CUL4B | 0.31 | migration z between -2 and 2; enough cells | 0.86 | 5270 | inactive |
| ANKRD35 | -0.01 | migration z between -2 and 2; enough cells | 0.88 | 7352 | inactive |
| SLC26A7 | 0.08 | migration z between -2 and 2; enough cells | 0.82 | 5542 | inactive |
| MID1IP1 | 1.05 | migration z between -2 and 2; enough cells | 1.16 | 4908 | inactive |
| LYRM7 | -0.55 | migration z between -2 and 2; enough cells | 0.75 | 4282 | inactive |
| NAV3 | 0.32 | migration z between -2 and 2; enough cells | 0.97 | 6566 | inactive |
| TRIML2 | 1.57 | migration z between -2 and 2; enough cells | 1.29 | 6450 | inactive |
| SAMHD1 | 0.18 | migration z between -2 and 2; enough cells | 0.84 | 5648 | inactive |
| ADAM15 | -0.29 | migration z between -2 and 2; enough cells | 0.75 | 7051 | inactive |
| CFAP65 | 0.42 | migration z between -2 and 2; enough cells | 1 | 7370 | inactive |
| BFSP1 | -0.76 | migration z between -2 and 2; enough cells | 0.69 | 5274 | inactive |
| ZNF609 | -2.04 | migration z below -2; enough cells | 0.35 | 4442 | active |
| CSF1 | 0.02 | migration z between -2 and 2; enough cells | 0.81 | 6098 | inactive |
| ZNF277 | -1.52 | migration z between -2 and 2; enough cells | 0.5 | 6593 | inactive |
| AMPD2 | 0.6 | migration z between -2 and 2; enough cells | 0.92 | 5023 | inactive |
| RBM12B | 0.93 | migration z between -2 and 2; enough cells | 1.12 | 6104 | inactive |
| BCL2L15 | 0.32 | migration z between -2 and 2; enough cells | 0.97 | 5683 | inactive |
| FOLH1B | 0.54 | migration z between -2 and 2; enough cells | 0.91 | 5384 | inactive |
| PIKFYVE | -0.16 | migration z between -2 and 2; enough cells | 0.78 | 6284 | inactive |
| RAD51C | -0.06 | migration z between -2 and 2; enough cells | 0.87 | 7421 | inactive |
| SMAP2 | 2.51 | migration z above 2; enough cells | 1.54 | 5801 | active |
| LKAAEAR1 | -0.86 | migration z between -2 and 2; enough cells | 0.64 | 4642 | inactive |
| RAC3 | -0.03 | migration z between -2 and 2; enough cells | 0.88 | 7282 | inactive |
| HDAC9 | -0.23 | migration z between -2 and 2; enough cells | 0.82 | 5642 | inactive |
| OR11H12 | -1.15 | migration z between -2 and 2; enough cells | 0.59 | 5792 | inactive |
| HOXC4 | 0.34 | migration z between -2 and 2; enough cells | 0.87 | 4933 | inactive |
| PGAP1 | -2.57 | migration z below -2; enough cells | 0.31 | 3901 | active |
| MYO1F | -0.03 | migration z between -2 and 2; enough cells | 0.88 | 5400 | inactive |
| C9orf153 | 0.18 | migration z between -2 and 2; enough cells | 0.93 | 6141 | inactive |
| SNRNP48 | 0.52 | migration z between -2 and 2; enough cells | 1.02 | 5900 | inactive |
| COIL | 0.39 | migration z between -2 and 2; enough cells | 0.98 | 6923 | inactive |
| SPA17 | 0.2 | migration z between -2 and 2; enough cells | 0.94 | 5634 | inactive |
| CCNP | 0.9 | migration z between -2 and 2; enough cells | 1.12 | 6684 | inactive |
| DIPK2A | -0.43 | migration z between -2 and 2; enough cells | 0.78 | 6757 | inactive |
| SLC36A2 | 0.68 | migration z between -2 and 2; enough cells | 0.94 | 5952 | inactive |
| LYSMD4 | -0.95 | migration z between -2 and 2; enough cells | 0.64 | 5846 | inactive |
| SS18 | 1.22 | migration z between -2 and 2; enough cells | 1.2 | 6691 | inactive |
| SSBP4 | -1.19 | migration z between -2 and 2; enough cells | 0.58 | 5002 | inactive |
| RFX4 | -0.08 | migration z between -2 and 2; enough cells | 0.86 | 5042 | inactive |
| OR4C16 | 0.52 | migration z between -2 and 2; enough cells | 1.02 | 6382 | inactive |
| IL2RA | 0.2 | migration z between -2 and 2; enough cells | 0.84 | 4420 | inactive |

Ordered by “migration relative to mock” (lowest first): 9 of the entries above.
| Target gene | migration robust z-score | migration class with cell-count check | migration relative to mock | nuclei per well, duplicate mean | Call |
| --- | --- | --- | --- | --- | --- |
| PGAP1 | -2.57 | migration z below -2; enough cells | 0.31 | 3901 | active |
| OR11H12 | -1.15 | migration z between -2 and 2; enough cells | 0.59 | 5792 | inactive |
| LKAAEAR1 | -0.86 | migration z between -2 and 2; enough cells | 0.64 | 4642 | inactive |
| HDAC9 | -0.23 | migration z between -2 and 2; enough cells | 0.82 | 5642 | inactive |
| HOXC4 | 0.34 | migration z between -2 and 2; enough cells | 0.87 | 4933 | inactive |
| RAC3 | -0.03 | migration z between -2 and 2; enough cells | 0.88 | 7282 | inactive |
| MYO1F | -0.03 | migration z between -2 and 2; enough cells | 0.88 | 5400 | inactive |
| C9orf153 | 0.18 | migration z between -2 and 2; enough cells | 0.93 | 6141 | inactive |
| SMAP2 | 2.51 | migration z above 2; enough cells | 1.54 | 5801 | active |
